In patent US5087704A, “Cyanine compounds” (Asahi Chemical Co., Ltd., priority 1988, dated 1992):

Experiment: Test for reflectivity (dye layer spin-coated on acrylic resin plate)
Conditions: 30 g/l in diacetone alcohol, spin-coated layer 600 to 700 Å on acrylic resin plate, light of 770 to 800 nm
Procedure: Each of cyanine dyes as shown below in Table 1 was dissolved in diacetone alcohol to a concentration of 30 g/l. The solution was applied to an acrylic resin plate by a spin coater rotated at 150 rpm to form a layer having a thickness of
600 to 700 Å, followed by drying. The maximum reflectivity of the coated acrylic resin plate was measured on irradiation of light at a wave length of 770 to 800 nm onto the substrate.

Which “Maximum reflectivity (%)” value does the source give for `CC1(C)C(=CC=CC=CC2=[N+](CCO)c3cc4c(cc3C2(C)C)OCO4)N(CCO)c2cc3c(cc21)OCO3` [Preparation Example 10] here?
Its value is 45%.

For `CCN1C(=CC=CC=CC2=[N+](CC)c3cc4c(cc3C2(C)C)OCO4)C(C)(C)c2cc3c(cc21)OCO3` [Preparation Example 2], which “Maximum reflectivity (%)” value is on record?
Its value is 45%.

Which “Maximum reflectivity (%)” value does the source give for `CCCCN1C(=CC=CC=CC2=[N+](CCCC)c3cc4c(cc3C2(C)C)OCO4)C(C)(C)c2cc3c(cc21)OCO3` [Preparation Example 1] here?
The value was 45%.

For `CCOCCN1C(=CC=CC=CC2=[N+](CCOCC)c3cc4c(cc3C2(C)C)CCC4)C(C)(C)c2cc3c(cc21)CCC3` [Preparation Example 7], which “Maximum reflectivity (%)” value is on record?
The value was 42%.

For `CCCCN1C(=CC=CC=CC2=[N+](CCCC)c3cc4c(cc3C2(C)C)OC(C)C4)C(C)(C)c2cc3c(cc21)CC(C)O3` (stereo not drawn) [Preparation Example 4], which “Maximum reflectivity (%)” value is on record?
The value was 39%.

For `CCCCN1C(=CC=CC=CC2=[N+](CCCC)c3cc4c(cc3C2(C)C)CC(C)O4)C(C)(C)c2cc3c(cc21)OC(C)C3` (stereo not drawn) [Preparation Example 5], which “Maximum reflectivity (%)” value is on record?
Its value is 40%.
